Source: the supplement of paper PMC12823440, “Inhibitors supercharge kinase turnover through native proteolytic circuits” (Nature, 2025)
Some of the results follow. The calls rarely recur for the same compound in another form.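 Kinases were expressed as nanoluciferase fusions in K562 cells and luminescence was read every 4 h between 2 and 18 h as percent of control, DMSO set to 100% and a positive control to 0%. A time point counts as decreased when the signal drops significantly (2 sigma). The hit call is the authors' own, does not follow from the count of time points alone, and its rule is not shown.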

Amino acid sequences for entries named in this document (tags omitted). A change or cut given only in a name is not applied to a line headed by its entry.
UniProt P00519, whole entry: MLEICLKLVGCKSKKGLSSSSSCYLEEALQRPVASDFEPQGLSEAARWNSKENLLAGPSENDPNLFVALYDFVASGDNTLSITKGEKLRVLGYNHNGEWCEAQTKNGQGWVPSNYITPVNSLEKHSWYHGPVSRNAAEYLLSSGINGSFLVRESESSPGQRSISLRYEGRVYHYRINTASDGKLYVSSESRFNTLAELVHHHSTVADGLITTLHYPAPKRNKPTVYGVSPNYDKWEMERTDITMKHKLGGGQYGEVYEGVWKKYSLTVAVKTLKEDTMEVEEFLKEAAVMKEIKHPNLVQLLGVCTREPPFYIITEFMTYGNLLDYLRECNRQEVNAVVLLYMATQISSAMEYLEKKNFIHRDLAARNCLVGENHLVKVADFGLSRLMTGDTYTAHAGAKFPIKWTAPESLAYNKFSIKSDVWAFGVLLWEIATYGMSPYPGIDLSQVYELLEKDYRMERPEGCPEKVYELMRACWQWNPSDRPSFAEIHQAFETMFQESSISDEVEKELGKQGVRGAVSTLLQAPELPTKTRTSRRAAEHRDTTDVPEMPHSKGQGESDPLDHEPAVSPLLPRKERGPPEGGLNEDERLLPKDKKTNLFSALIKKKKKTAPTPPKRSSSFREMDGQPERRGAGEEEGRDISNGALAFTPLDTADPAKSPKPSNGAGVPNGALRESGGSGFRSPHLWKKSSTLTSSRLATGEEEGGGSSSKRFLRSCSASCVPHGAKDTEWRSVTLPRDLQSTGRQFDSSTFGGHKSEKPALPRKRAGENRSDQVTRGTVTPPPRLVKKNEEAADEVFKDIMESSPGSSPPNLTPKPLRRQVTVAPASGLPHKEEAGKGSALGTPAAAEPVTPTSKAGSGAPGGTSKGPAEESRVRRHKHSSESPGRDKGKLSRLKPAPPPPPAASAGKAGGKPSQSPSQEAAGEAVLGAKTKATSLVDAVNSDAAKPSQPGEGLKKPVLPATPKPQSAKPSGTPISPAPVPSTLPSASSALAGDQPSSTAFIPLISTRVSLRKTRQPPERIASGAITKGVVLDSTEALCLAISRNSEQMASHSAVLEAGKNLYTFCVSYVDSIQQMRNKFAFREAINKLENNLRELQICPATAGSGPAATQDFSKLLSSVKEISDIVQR
UniProt P31749: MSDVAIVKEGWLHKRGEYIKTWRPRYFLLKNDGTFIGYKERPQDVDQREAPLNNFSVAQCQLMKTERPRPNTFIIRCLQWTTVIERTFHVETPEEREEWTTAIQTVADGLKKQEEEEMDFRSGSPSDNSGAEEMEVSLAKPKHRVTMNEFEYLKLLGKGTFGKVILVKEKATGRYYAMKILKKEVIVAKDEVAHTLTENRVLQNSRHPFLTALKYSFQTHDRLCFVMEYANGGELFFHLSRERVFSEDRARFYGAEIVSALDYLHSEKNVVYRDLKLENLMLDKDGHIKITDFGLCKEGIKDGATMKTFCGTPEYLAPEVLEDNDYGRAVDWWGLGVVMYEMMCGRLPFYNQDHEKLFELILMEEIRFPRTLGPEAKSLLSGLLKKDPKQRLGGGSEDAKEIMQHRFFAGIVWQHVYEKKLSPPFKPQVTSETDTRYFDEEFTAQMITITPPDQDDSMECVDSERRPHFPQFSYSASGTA
UniProt P10398: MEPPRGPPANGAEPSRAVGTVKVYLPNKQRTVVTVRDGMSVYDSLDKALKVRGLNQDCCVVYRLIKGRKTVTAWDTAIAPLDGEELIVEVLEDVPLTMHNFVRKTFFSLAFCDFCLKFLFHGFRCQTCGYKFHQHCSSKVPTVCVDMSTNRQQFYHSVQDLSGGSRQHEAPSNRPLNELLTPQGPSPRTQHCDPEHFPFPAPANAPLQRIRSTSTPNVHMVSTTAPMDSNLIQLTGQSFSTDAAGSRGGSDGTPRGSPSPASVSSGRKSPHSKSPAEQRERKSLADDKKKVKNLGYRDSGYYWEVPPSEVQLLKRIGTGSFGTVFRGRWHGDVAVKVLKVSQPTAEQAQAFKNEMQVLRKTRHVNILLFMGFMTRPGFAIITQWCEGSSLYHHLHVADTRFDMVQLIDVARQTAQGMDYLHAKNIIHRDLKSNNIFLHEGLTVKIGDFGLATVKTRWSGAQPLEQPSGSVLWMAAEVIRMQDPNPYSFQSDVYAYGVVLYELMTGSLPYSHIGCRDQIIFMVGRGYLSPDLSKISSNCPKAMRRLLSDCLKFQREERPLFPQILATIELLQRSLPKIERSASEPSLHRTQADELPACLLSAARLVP
UniProt Q9UQB9: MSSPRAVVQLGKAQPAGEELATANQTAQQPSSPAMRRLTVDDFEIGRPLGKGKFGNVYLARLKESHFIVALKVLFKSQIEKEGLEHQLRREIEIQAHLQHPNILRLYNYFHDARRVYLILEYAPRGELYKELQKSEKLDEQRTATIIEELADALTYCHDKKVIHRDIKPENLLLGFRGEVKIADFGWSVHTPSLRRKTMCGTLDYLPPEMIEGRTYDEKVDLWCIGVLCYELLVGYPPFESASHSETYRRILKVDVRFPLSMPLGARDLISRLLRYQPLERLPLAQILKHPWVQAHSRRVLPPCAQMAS
UniProt P51813: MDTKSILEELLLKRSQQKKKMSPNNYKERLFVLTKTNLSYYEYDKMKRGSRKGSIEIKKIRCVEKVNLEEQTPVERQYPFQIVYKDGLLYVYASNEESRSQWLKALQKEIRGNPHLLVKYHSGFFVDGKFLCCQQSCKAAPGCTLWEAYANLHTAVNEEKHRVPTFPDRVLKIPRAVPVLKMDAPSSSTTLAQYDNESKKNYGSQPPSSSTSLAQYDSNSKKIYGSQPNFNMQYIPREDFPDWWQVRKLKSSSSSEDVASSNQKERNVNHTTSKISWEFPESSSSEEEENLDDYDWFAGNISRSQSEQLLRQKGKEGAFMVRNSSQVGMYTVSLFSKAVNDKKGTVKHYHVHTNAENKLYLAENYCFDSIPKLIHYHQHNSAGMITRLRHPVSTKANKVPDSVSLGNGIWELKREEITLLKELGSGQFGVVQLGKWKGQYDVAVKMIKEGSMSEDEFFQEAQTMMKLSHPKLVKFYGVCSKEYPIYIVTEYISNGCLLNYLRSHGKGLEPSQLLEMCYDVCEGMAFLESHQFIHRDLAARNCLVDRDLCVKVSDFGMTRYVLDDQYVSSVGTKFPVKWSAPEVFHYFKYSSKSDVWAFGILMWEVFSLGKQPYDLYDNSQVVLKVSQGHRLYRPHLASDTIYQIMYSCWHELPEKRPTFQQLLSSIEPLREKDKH
UniProt P15056, whole entry, looked up: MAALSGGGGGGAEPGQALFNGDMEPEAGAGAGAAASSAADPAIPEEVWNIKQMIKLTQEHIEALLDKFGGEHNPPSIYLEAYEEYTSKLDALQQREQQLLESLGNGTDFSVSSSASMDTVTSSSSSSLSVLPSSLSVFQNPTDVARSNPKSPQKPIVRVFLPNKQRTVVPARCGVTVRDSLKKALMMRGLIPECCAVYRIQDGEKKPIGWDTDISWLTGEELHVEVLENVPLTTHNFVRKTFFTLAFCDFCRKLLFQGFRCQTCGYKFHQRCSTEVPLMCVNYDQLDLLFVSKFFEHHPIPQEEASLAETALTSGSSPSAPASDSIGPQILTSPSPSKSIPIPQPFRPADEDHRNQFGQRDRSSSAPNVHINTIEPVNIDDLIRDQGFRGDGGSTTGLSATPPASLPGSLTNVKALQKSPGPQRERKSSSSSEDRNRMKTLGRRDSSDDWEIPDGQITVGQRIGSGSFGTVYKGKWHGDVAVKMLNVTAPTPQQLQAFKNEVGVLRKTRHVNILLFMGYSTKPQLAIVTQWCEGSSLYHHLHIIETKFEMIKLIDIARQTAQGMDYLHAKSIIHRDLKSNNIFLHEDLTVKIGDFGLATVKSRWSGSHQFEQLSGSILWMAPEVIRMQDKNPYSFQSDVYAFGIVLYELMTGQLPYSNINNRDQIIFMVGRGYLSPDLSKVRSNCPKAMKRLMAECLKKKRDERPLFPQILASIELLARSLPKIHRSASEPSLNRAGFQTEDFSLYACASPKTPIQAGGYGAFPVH
UniProt Q06187: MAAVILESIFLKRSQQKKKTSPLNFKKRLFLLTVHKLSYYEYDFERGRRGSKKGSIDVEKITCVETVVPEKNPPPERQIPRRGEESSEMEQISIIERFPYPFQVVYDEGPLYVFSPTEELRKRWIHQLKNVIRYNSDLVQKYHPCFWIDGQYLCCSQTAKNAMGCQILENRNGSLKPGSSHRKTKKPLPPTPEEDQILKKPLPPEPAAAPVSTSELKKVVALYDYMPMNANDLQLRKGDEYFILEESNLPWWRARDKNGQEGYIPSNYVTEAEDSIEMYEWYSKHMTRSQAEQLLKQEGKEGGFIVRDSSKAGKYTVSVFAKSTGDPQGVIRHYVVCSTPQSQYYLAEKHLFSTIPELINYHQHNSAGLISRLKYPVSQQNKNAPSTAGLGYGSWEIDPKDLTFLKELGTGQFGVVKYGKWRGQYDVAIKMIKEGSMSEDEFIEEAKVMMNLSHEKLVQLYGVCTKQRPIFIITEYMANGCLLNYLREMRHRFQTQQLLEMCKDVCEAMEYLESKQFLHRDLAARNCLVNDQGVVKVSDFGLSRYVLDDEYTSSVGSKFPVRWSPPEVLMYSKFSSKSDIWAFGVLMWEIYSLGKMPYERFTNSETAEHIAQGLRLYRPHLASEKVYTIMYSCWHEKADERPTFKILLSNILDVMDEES
UniProt Q9UQM7, whole entry: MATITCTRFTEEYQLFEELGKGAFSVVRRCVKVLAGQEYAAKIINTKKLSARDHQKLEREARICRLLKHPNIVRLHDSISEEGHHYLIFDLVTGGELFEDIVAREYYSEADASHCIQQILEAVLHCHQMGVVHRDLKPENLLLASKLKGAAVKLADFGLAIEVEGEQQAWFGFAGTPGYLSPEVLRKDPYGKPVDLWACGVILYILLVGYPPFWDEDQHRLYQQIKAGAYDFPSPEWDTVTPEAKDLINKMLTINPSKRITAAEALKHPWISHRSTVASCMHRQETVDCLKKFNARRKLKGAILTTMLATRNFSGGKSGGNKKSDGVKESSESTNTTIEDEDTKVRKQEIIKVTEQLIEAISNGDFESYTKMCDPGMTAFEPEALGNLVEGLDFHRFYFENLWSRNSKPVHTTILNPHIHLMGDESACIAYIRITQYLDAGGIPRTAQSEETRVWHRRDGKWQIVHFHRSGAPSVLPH
UniProt Q00526: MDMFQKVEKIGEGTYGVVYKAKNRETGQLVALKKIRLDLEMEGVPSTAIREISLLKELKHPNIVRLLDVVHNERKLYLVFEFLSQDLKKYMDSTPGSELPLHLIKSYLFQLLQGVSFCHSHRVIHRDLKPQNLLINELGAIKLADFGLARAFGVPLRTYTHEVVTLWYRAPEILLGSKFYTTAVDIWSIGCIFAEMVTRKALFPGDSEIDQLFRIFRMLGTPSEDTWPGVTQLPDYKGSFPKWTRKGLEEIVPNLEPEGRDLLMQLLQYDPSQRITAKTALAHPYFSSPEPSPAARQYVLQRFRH
UniProt P11802: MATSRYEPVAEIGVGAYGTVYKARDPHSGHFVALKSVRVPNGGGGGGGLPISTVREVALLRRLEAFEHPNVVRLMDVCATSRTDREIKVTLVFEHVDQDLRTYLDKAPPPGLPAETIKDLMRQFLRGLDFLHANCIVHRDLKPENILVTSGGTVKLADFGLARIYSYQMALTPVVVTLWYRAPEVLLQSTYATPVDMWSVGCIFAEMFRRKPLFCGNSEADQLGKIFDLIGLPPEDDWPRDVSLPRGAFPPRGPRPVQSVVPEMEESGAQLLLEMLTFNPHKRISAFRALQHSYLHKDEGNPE
UniProt Q00535, whole entry, looked up: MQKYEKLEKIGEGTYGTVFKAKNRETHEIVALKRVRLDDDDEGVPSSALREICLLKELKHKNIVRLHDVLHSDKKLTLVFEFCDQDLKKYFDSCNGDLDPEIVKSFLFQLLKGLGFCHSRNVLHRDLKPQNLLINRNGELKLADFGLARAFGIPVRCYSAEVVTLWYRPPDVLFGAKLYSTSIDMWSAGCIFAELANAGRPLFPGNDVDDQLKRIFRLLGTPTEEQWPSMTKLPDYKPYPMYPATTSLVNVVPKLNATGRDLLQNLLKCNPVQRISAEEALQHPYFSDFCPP
UniProt Q00534, whole entry: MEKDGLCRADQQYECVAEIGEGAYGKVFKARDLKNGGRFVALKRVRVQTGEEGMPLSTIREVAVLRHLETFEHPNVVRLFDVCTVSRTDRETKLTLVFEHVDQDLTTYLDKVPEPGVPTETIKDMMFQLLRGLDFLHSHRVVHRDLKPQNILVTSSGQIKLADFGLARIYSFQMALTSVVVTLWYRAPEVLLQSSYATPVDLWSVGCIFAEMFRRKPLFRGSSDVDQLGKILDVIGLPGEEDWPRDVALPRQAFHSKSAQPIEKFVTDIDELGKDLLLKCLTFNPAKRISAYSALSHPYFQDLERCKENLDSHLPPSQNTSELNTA

Columns and labels:
Assay in all cases: kinase-Nluc reporter destabilization hit call (1 = scored as downregulated) (binary); higher = compound decreases kinase abundance
Conditions in all cases: K562; 2-18 h
ABL1 = ABL1 (UniProt P00519)
AKT1 = AKT1 (UniProt P31749)
ALK = ALK (UniProt Q9UM73)
ARAF = ARAF (UniProt P10398)
AURKA = AURKA (UniProt O14965)
AURKB = AURKB (UniProt Q96GD4)
AURKC = AURKC (UniProt Q9UQB9)
BLK = BLK (UniProt P51451)
BMX = BMX (UniProt P51813)
BRAF = BRAF (UniProt P15056)
BRAF_V600E = tested on: BRAF_V600E
BTK = BTK (UniProt Q06187)
CAMK2A = CAMK2A (UniProt Q9UQM7)
CAMK2G = CAMK2G (UniProt Q13555)
CDK10 = CDK10 (UniProt Q15131)
CDK2 = CDK2 (UniProt P24941)
CDK3 = CDK3 (UniProt Q00526)
CDK4 = CDK4 (UniProt P11802)
CDK5 = CDK5 (UniProt Q00535)
CDK6 = CDK6 (UniProt Q00534)

Measured: kinase-Nluc reporter destabilization hit call

Cc1ccc(NC(=O)N2CCN(c3nc(N)nc4sc(-c5cccnc5)nc34)CC2)cc1 [PI4KIII beta inhibitor 3] (10 µM)
inactive: ABL1 = 0 | AKT1 = 0 | ALK 0 | ARAF 0 | AURKA 0 | AURKB 0 | AURKC 0 | BLK 0 | BMX 0 | BRAF 0 | BRAF_V600E 0 | BTK 0 | CAMK2A 0 | CAMK2G 0 | CDK10 = 0 | CDK2 = 0 | CDK3 = 0 | CDK4 = 0 | CDK5 = 0 | CDK6 = 0

O=CN1CCN(c2ccc(C=C3C(=O)Nc4ccccc43)cc2)CC1 (10 µM)
inactive: ABL1 = 0 | AKT1 = 0 | ALK 0 | ARAF 0 | AURKA 0 | AURKB 0 | AURKC 0 | BLK 0 | BMX 0 | BRAF 0 | BRAF_V600E 0 | BTK 0 | CAMK2A 0 | CAMK2G 0 | CDK10 = 0 | CDK2 = 0 | CDK3 = 0 | CDK4 = 0 | CDK5 = 0 | CDK6 = 0

CNc1cc2c(Nc3cccc(Br)c3)ncnc2cn1 (10 µM)
inactive: ABL1 = 0 | AKT1 = 0 | ALK 0 | ARAF 0 | AURKA 0 | AURKB 0 | AURKC 0 | BLK 0 | BMX 0 | BRAF 0 | BRAF_V600E 0 | BTK 0 | CAMK2A 0 | CAMK2G 0 | CDK10 = 0 | CDK2 = 0 | CDK3 = 0 | CDK4 = 0 | CDK5 = 0 | CDK6 = 0

NC(=O)c1c(NC(=O)C2CC2)sc2c1CCCC2 (10 µM)
inactive: ABL1 = 0 | AKT1 = 0 | ALK 0 | ARAF 0 | AURKA 0 | AURKB 0 | AURKC 0 | BLK 0 | BMX 0 | BRAF 0 | BRAF_V600E 0 | BTK 0 | CAMK2A 0 | CAMK2G 0 | CDK10 = 0 | CDK2 = 0 | CDK3 = 0 | CDK4 = 0 | CDK5 = 0 | CDK6 = 0

CN1C(=O)[C@@H](NC(=O)c2cc(Cc3ccccc3)on2)COc2ccccc21 (10 µM)
inactive: ABL1 = 0 | AKT1 = 0 | ALK 0 | ARAF 0 | AURKA 0 | AURKB 0 | AURKC 0 | BLK 0 | BMX 0 | BRAF 0 | BRAF_V600E 0 | BTK 0 | CAMK2A 0 | CAMK2G 0 | CDK10 = 0 | CDK2 = 0 | CDK3 = 0 | CDK4 = 0 | CDK5 = 0 | CDK6 = 0

N#Cc1cc(N2CCC(C(=O)N3N=CC[C@H]3c3cc(F)cc(F)c3)CC2)ncn1 (10 µM)
inactive: ABL1 = 0 | AKT1 = 0 | ALK 0 | ARAF 0 | AURKA 0 | AURKB 0 | AURKC 0 | BLK 0 | BMX 0 | BRAF 0 | BRAF_V600E 0 | BTK 0 | CAMK2A 0 | CAMK2G 0 | CDK10 = 0 | CDK2 = 0 | CDK3 = 0 | CDK4 = 0 | CDK5 = 0 | CDK6 = 0

O=C(COc1ccc(Cl)cc1)NC1CCC(NC(=O)COc2ccc(Cl)cc2)CC1 (stereo not drawn) [ISRIB (trans-isomer)] (10 µM)
inactive: ABL1 = 0 | AKT1 = 0 | ALK 0 | ARAF 0 | AURKA 0 | AURKB 0 | AURKC 0 | BLK 0 | BMX 0 | BRAF 0 | BRAF_V600E 0 | BTK 0 | CAMK2A 0 | CAMK2G 0 | CDK10 = 0 | CDK2 = 0 | CDK3 = 0 | CDK4 = 0 | CDK5 = 0 | CDK6 = 0

CCn1c(N)c(C(=O)NC)c(=O)c2ccc(C#CC(C)(O)COC)nc21 (stereo not given) (10 µM)
inactive: ABL1 = 0 | AKT1 = 0 | ALK 0 | ARAF 0 | AURKA 0 | AURKB 0 | AURKC 0 | BLK 0 | BMX 0 | BRAF 0 | BRAF_V600E 0 | BTK 0 | CAMK2A 0 | CAMK2G 0 | CDK10 = 0 | CDK2 = 0 | CDK3 = 0 | CDK4 = 0 | CDK5 = 0 | CDK6 = 0

C=CC(=O)Nc1cc(Nc2nccc(-c3cn(C)c4ccccc34)n2)c(OCC(F)(F)F)nc1N(C)CCNC [AST5902  (trimesylate)] (2.5 µM)
inactive: ABL1 = 0 | AKT1 = 0 | ALK 0 | ARAF 0 | AURKA 0 | AURKB 0 | AURKC 0 | BLK 0 | BMX 0 | BRAF 0 | BRAF_V600E 0 | BTK 0 | CAMK2A 0 | CAMK2G 0 | CDK10 = 0 | CDK2 = 0 | CDK3 = 0 | CDK4 = 0 | CDK5 = 0 | CDK6 = 0

Some of these compounds in order of length of the SMILES, smallest number first.
CNc1cc2c(Nc3cccc(Br)c3)ncnc2cn1 (10 µM)
inactive: ABL1 = 0 | AKT1 = 0 | ALK 0 | ARAF 0 | AURKA 0 | AURKB 0 | AURKC 0 | BLK 0 | BMX 0 | BRAF 0 | BRAF_V600E 0 | BTK 0 | CAMK2A 0 | CAMK2G 0 | CDK10 = 0 | CDK2 = 0 | CDK3 = 0 | CDK4 = 0 | CDK5 = 0 | CDK6 = 0

CCn1c(N)c(C(=O)NC)c(=O)c2ccc(C#CC(C)(O)COC)nc21 (stereo not given) (10 µM)
inactive: ABL1 = 0 | AKT1 = 0 | ALK 0 | ARAF 0 | AURKA 0 | AURKB 0 | AURKC 0 | BLK 0 | BMX 0 | BRAF 0 | BRAF_V600E 0 | BTK 0 | CAMK2A 0 | CAMK2G 0 | CDK10 = 0 | CDK2 = 0 | CDK3 = 0 | CDK4 = 0 | CDK5 = 0 | CDK6 = 0

Cc1ccc(NC(=O)N2CCN(c3nc(N)nc4sc(-c5cccnc5)nc34)CC2)cc1 [PI4KIII beta inhibitor 3] (10 µM)
inactive: ABL1 = 0 | AKT1 = 0 | ALK 0 | ARAF 0 | AURKA 0 | AURKB 0 | AURKC 0 | BLK 0 | BMX 0 | BRAF 0 | BRAF_V600E 0 | BTK 0 | CAMK2A 0 | CAMK2G 0 | CDK10 = 0 | CDK2 = 0 | CDK3 = 0 | CDK4 = 0 | CDK5 = 0 | CDK6 = 0

Following part.

CC(ONC(=O)c1cc(C(F)(F)F)cc(C(F)(F)F)c1)C(=O)Nc1ccc(Cl)cc1 (stereo not given) (2.5 µM)
inactive: ABL1 = 0 | AKT1 = 0 | ALK 0 | ARAF 0 | AURKA 0 | AURKB 0 | AURKC 0 | BLK 0 | BRAF 0 | BRAF_V600E 0 | BTK 0 | CAMK2A 0 | CAMK2G 0 | CDK10 = 0 | CDK2 = 0 | CDK3 = 0 | CDK4 = 0 | CDK5 = 0 | CDK6 = 0
active: BMX 1

COc1c(Nc2ncc(Cl)c(N[C@H]3[C@@H](C(N)=O)[C@@H]4C=C[C@H]3C4)n2)ccc2c1CC[C@@H](N1CCOCC1)CC2 (10 µM)
inactive: ABL1 = 0 | AKT1 = 0 | ALK 0 | ARAF 0 | AURKA 0 | AURKB 0 | AURKC 0 | BLK 0 | BMX 0 | BRAF 0 | BRAF_V600E 0 | BTK 0 | CAMK2A 0 | CAMK2G 0 | CDK10 = 0 | CDK2 = 0 | CDK3 = 0 | CDK4 = 0 | CDK5 = 0 | CDK6 = 0

COCCOc1cnc2ccn([C@H](C)c3nnc4c(F)cc(-c5cnn(C)c5)cn34)c(=O)c2c1 (10 µM)
inactive: ABL1 = 0 | AKT1 = 0 | ALK 0 | ARAF 0 | AURKA 0 | AURKB 0 | AURKC 0 | BLK 0 | BMX 0 | BRAF 0 | BRAF_V600E 0 | BTK 0 | CAMK2A 0 | CAMK2G 0 | CDK10 = 0 | CDK2 = 0 | CDK3 = 0 | CDK4 = 0 | CDK5 = 0 | CDK6 = 0

CC(C)n1c(CO)nc2c(F)cc(-c3nc(Nc4ccc(CN5CCNCC5)cn4)ncc3F)cc21 (10 µM)
inactive: ABL1 = 0 | AKT1 = 0 | ALK 0 | ARAF 0 | AURKA 0 | AURKB 0 | AURKC 0 | BLK 0 | BMX 0 | BRAF 0 | BRAF_V600E 0 | BTK 0 | CAMK2A 0 | CAMK2G 0 | CDK10 = 0 | CDK2 = 0 | CDK3 = 0 | CDK4 = 0 | CDK5 = 0 | CDK6 = 0

CN1CCN(Cc2ccc(-c3cnc4[nH]cc(-c5ccc6[nH]ccc6c5)c4c3)cc2)CC1 (2.5 µM)
inactive: ABL1 = 0 | AKT1 = 0 | ALK 0 | ARAF 0 | AURKA 0 | AURKB 0 | AURKC 0 | BLK 0 | BMX 0 | BRAF 0 | BRAF_V600E 0 | BTK 0 | CAMK2A 0 | CAMK2G 0 | CDK10 = 0 | CDK2 = 0 | CDK3 = 0 | CDK4 = 0 | CDK5 = 0 | CDK6 = 0

O=C(Nc1ccc(F)cc1F)C(NC(=S)Nc1cc(C(F)(F)F)cc(C(F)(F)F)c1)c1ccccc1 (racemic) (2.5 µM)
active: AURKB 1
inactive: ABL1 = 0 | AKT1 = 0 | ALK 0 | ARAF 0 | AURKA 0 | AURKC 0 | BLK 0 | BMX 0 | BRAF 0 | BRAF_V600E 0 | BTK 0 | CAMK2A 0 | CAMK2G 0 | CDK10 = 0 | CDK2 = 0 | CDK3 = 0 | CDK4 = 0 | CDK5 = 0 | CDK6 = 0

O=C(Nc1ccccc1C(=O)NC1CCCCNC1=O)c1cc2ccccc2s1 (stereo not given) (10 µM)
inactive: ABL1 = 0 | AKT1 = 0 | ALK 0 | ARAF 0 | AURKA 0 | AURKB 0 | AURKC 0 | BLK 0 | BMX 0 | BRAF 0 | BRAF_V600E 0 | BTK 0 | CAMK2A 0 | CAMK2G 0 | CDK10 = 0 | CDK2 = 0 | CDK3 = 0 | CDK4 = 0 | CDK5 = 0 | CDK6 = 0

COc1ccc(-c2cc(=O)c3c(O)cc(O)cc3o2)cc1-c1c(O)cc(O)c2c(=O)cc(-c3ccc(O)cc3)oc12 [Bilobetin] (2.5 µM)
inactive: ABL1 = 0 | AKT1 = 0 | ALK 0 | ARAF 0 | AURKA 0 | AURKB 0 | AURKC 0 | BLK 0 | BMX 0 | BRAF 0 | BRAF_V600E 0 | BTK 0 | CAMK2A 0 | CAMK2G 0 | CDK10 = 0 | CDK2 = 0 | CDK3 = 0 | CDK4 = 0 | CDK5 = 0 | CDK6 = 0

COCCNc1cc(NC(=O)N2CCCc3cc(CN4CCOCC4=O)c(C=O)nc32)ncc1C#N (10 µM)
inactive: ABL1 = 0 | AKT1 = 0 | ALK 0 | ARAF 0 | AURKA 0 | AURKB 0 | AURKC 0 | BLK 0 | BMX 0 | BRAF 0 | BRAF_V600E 0 | BTK 0 | CAMK2A 0 | CAMK2G 0 | CDK10 = 0 | CDK2 = 0 | CDK3 = 0 | CDK4 = 0 | CDK5 = 0 | CDK6 = 0
